The list does not hold the whole screen: it is rich in T/C values a quarter to a half above the control, in often repeated tests (any T/C) and in doses without a T/C. Further doses and runs are listed elsewhere. T/C is the treated group as % of the vehicle group. Schedules are NCI's codes, taken here to give the interval after Q, in days (D) or hours (H), and the number of doses after X. Some T/C values are followed by the survivors on the day toxicity was checked, most often the fifth; without a count, all were alive then. Some entries hold several experiments; the results are listed from low to high. Some doses have a count of surviving animals in place of a T/C: the source holds a T/C of zero for them, seemingly a mark for toxic or unscored doses. Survivors were counted at the toxicity check, usually on the fifth day, unless a day is given; later deaths do not show. Some schedules carry Z or #; the key to these is not given. Non-standard residues stand in square brackets, D forms with d. Residues, ends and D or L forms follow the SMILES beside them. ξ: configuration not given here. Ac5c = NC1(C(=O)O)CCCC1; ξS = NC(CO)C(=O)O
Test system: BDF1 mice, Adenocarcinoma 755 s.c., tumor weight T/C
Assay: NCI In Vivo Anticancer Drug Screen. Data for tumor model Adenocarcinoma 755 (subcutaneous) in B6D2F1 (BDF1) mice
Settings: T/C endpoint: mean tumor weight, higher T/C = larger tumour; for T/C: evaluated on day 12
Outline: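 Values express treated (T) relative to vehicle-dosed control (C) animals, based on survival or tumour size measured after compound treatment of mice bearing a transplanted tumour.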

[1] = dose: 2.5 mg/kg/injection, schedule: Q01DX011 (ip), vehicle: carboxymethylcellulose (CMC)
[2] = dose: 50.0 mg/kg/injection, schedule: Q01DX011 (ip), vehicle: carboxymethylcellulose (CMC)
[3] = dose: 100.0 mg/kg/injection, schedule: Q01DX011 (ip), vehicle: carboxymethylcellulose (CMC)
[4] = dose: 3.0 mg/kg/injection, schedule: Q01DX011 (ip), vehicle: carboxymethylcellulose (CMC)
[5] = dose: 125.0 mg/kg/injection, schedule: Q01DX011 (ip), vehicle: methylcellulose (MC)

## C[C@]12C[C@H](O)[C@H]3[C@@H](CCC4=CC(=O)CC[C@@]43C)[C@@H]1CC[C@@H]2C(=O)CO
dose: 160.0 mg/kg/injection, schedule: Q01DX011 (oral), vehicle: steroid suspending solution
  survivor count: 4 of 10
dose: 200.0 mg/kg/injection, schedule: Q01DX011 (oral), vehicle: steroid suspending solution
  survivor count: 3 of 10
dose: 200.0 mg/kg/injection, schedule: Q#A X022 (sc), vehicle: steroid suspending solution
  survivor count: 1 of 10
dose: 320.0 mg/kg/injection, schedule: Q01DX011 (iv), vehicle: steroid suspending solution
  survivor count: 6 of 10
dose: 400.0 mg/kg/injection, schedule: Q#A X022 (sc), vehicle: steroid suspending solution
  survivor count: 1 of 10
dose: 460.0 mg/kg/injection, schedule: Q01DX011 (im), vehicle: steroid suspending solution
  survivor count: 5 of 10
dose: 460.0 mg/kg/injection, schedule: Q01DX011 (ip), vehicle: steroid suspending solution
  survivor count: 0 of 10
dose: 460.0 mg/kg/injection, schedule: Q01DX011 (sc), vehicle: steroid suspending solution
  survivor count: 5 of 10
dose: 640.0 mg/kg/injection, schedule: Q01DX011 (im), vehicle: steroid suspending solution
  survivor count: 5 of 10
dose: 640.0 mg/kg/injection, schedule: Q01DX011 (ip), vehicle: steroid suspending solution
  survivor count: 0 of 10
dose: 640.0 mg/kg/injection, schedule: Q01DX011 (sc), vehicle: steroid suspending solution
  survivor count: 5 of 10
dose: 800.0 mg/kg/injection, schedule: Q01DX011 (oral), vehicle: steroid suspending solution
  survivor count: 3 of 10
dose: 960.0 mg/kg/injection, schedule: Q01DX011 (oral), vehicle: steroid suspending solution
  survivor count: 4 of 10

## O=C1C=C(N2CC2)C(=O)C(N2CC2)=C1N1CC1
dose: 0.2 mg/kg/injection, schedule: Q01DX011 (ip), vehicle: saline
  survivor count: 0 of 10 and 1 of 10

## Cc1cc2nc3c(=O)[nH]c(=O)nc-3n(CC(O)C(O)C(O)C(O)CO)c2cc1C (stereo not given)
dose: 19.0 mg/kg/injection, schedule: Q01DX011 (ip), vehicle: carboxymethylcellulose (CMC)
  T/C: 147 % of control [9 of 10 alive]
dose: 250.0 mg/kg/injection, schedule: Q01DX011 (ip), vehicle: methylcellulose (MC)
  survivor count: 4 of 10

## C=CCSc1ncnc2c1ncn2C1OC(CO)C(O)C1O (stereo not given)
dose: 200.0 mg/kg/injection, schedule: Q01DX011 (ip), vehicle: saline
  survivor count: 4 of 10 and 5 of 10
dose: 640.0 mg/kg/injection, schedule: Q01DX011 (ip), vehicle: saline
  survivor count: 0 of 10

## O=C1Nc2cc3c(c4cccc1c24)CCCC3
[1]
  T/C: 129 % of control

## Cn1c(=O)c2c(nc(/N=C/c3ccccc3)n2C)n(C)c1=O
dose: 75.0 mg/kg/injection, schedule: Q01DX011 (ip), vehicle: methylcellulose (MC)
  survivor count: 2 of 10

## CC(=O)OCC(=O)[C@@]1(O)CC[C@H]2[C@@H]3CCC4=CC(=O)C=C[C@]4(C)[C@H]3C(=O)C[C@@]21C
dose: 115.0 mg/kg/injection, schedule: Q01DX011 (sc), vehicle: steroid suspending solution
  survivor count: 1 of 10
dose: 120.0 mg/kg/injection, schedule: Q01DX011 (sc), vehicle: steroid suspending solution
  survivor count: 6 of 10
dose: 230.0 mg/kg/injection, schedule: Q01DX011 (sc), vehicle: steroid suspending solution
  survivor count: 1 of 12 and 2 of 10

## O=C(CCCCC(=O)Nc1ccc(C(=O)Nc2cc(C3=NCCN3)cc(C3=NCCN3)c2)cc1)Nc1ccc(C(=O)Nc2cc(C3=NCCN3)cc(C3=NCCN3)c2)cc1
dose: 12.5 mg/kg/injection, schedule: Q01DX011 (ip), vehicle: carboxymethylcellulose (CMC)
  T/C: 42 [7 of 10 alive], 74 [7 of 10 alive], 78 [9 of 10 alive], 81 % of control
dose: 25.0 mg/kg/injection, schedule: Q01DX011 (ip), vehicle: carboxymethylcellulose (CMC)
  T/C: 50, 63, 78, 97 % of control [9 of 10 alive]
[2]
  T/C: 32, 49 [9 of 10 alive], 76 % of control [9 of 10 alive]
  survivor count: 6 of 10
[3]
  T/C: 26 [7 of 10 alive], 30 [8 of 10 alive], 45 [9 of 10 alive], 70 % of control [8 of 10 alive]
dose: 200.0 mg/kg/injection, schedule: Q01DX011 (ip), vehicle: carboxymethylcellulose (CMC)
  survivor count: 4 of 10 and 5 of 10

## NC(CO)C(=O)NC1(C(=O)O)CCCC1 (stereo not given) (H-[ξS]-[Ac5c]-OH)
dose: 360.0 mg/kg/injection, schedule: Q01DX011 (ip), vehicle: carboxymethylcellulose (CMC)
  survivor count: 2 of 10

## N#[N+]c1nc[nH]c1C(N)=O
dose: 2.5 mg/kg/injection, schedule: Q01DX011 (ip), vehicle: methylcellulose (MC)
  survivor count: 5 of 10
dose: 5.0 mg/kg/injection, schedule: Q01DX011 (ip), vehicle: methylcellulose (MC)
  survivor count: 3 of 10

## O=C(Nc1ccc2c(O)c(N=Nc3ccccc3)c(S(=O)(=O)O)cc2c1)Nc1ccc2c(O)c(N=Nc3ccc4cc(S(=O)(=O)O)ccc4c3)c(S(=O)(=O)O)cc2c1
dose: 65.0 mg/kg/injection, schedule: Q01DX011 (ip), vehicle: carboxymethylcellulose (CMC)
  survivor count: 6 of 10
[3]
  survivor count: 6 of 10

## CCCNc1ncnc2c1cnn2C
dose: 25.0 mg/kg/injection, schedule: Q01DX011 (ip), vehicle: methylcellulose (MC)
  survivor count: 3 of 10

## C[C@]12CCC(=O)C=C1CC[C@@H]1[C@@H]2[C@@H](O)C[C@@]2(C)[C@H]1CC[C@]2(O)C(=O)COC(=O)COCC(=O)O
dose: 400.0 mg/kg/injection, schedule: Q01DX011 (ip), vehicle: steroid suspending solution
  survivor count: 6 of 12

## CN(Cc1cnc2nc(N)nc(N)c2n1)c1ccc(C(=O)N[C@@H](CCC(=O)O)C(=O)O)cc1
[1]
  survivor count: 3 of 10
[4]
  survivor count: 1 of 10
dose: 3.5 mg/kg/injection, schedule: Q01DX011 (ip), vehicle: carboxymethylcellulose (CMC)
  survivor count: 2 of 10
dose: 4500.0 micrograms/kg/injection, schedule: Q01DX011 (ip), vehicle: carboxymethylcellulose (CMC)
  survivor count: 3 of 10

## c1ccc2nc(-c3cc4ccccc4s3)ccc2c1
dose: 450.0 mg/kg/injection, schedule: Q01DX011 (ip), vehicle: carboxymethylcellulose (CMC)
  survivor count: 6 of 10

## C1CN1P1(N2CC2)=NP(N2CC2)(N2CC2)=NP(N2CC2)(N2CC2)=N1
dose: 24.0 mg/kg/injection, schedule: Q01DX011 (ip), vehicle: carboxymethylcellulose (CMC)
  survivor count: 3 of 10

## CSc1nc(S(C)(=O)=O)ncc1C
[5]
  survivor count: 6 of 10

## Nc1n[se]nc1C(=O)O
dose: 1.5 mg/kg/injection, schedule: Q01DX011 (ip), vehicle: carboxymethylcellulose (CMC)
  survivor count: 5 of 10
dose: 2.0 mg/kg/injection, schedule: Q01DX011 (ip), vehicle: carboxymethylcellulose (CMC)
  survivor count: 0 of 10
[4]
  survivor count: 0 of 10

## C=C1CN(CC)CCO1
dose: 200.0 mg/kg/injection, schedule: Q01DX011 (ip), vehicle: other
  survivor count: 0 of 10

## CSc1ncc(Br)c(Nc2ccccc2Cl)n1
dose: 62.0 mg/kg/injection, schedule: Q01DX011 (ip), vehicle: methylcellulose (MC)
  T/C: 129 % of control [9 of 10 alive]
[5]
  T/C: 136 % of control

## NC(CCSCc1ccc(N(CCCl)CCCl)cc1)C(=O)O (stereo not given)
dose: 36.0 mg/kg/injection, schedule: Q01DX011 (ip), vehicle: saline
  survivor count: 5 of 10
dose: 81.0 mg/kg/injection, schedule: Q01DX011 (ip), vehicle: saline
  survivor count: 3 of 10

## COc1ccc(C(=O)OCC2OC(n3cnc4c(=S)nc[nH]c43)C(OC(=O)c3ccc(OC)cc3)C2OC(=O)c2ccc(OC)cc2)cc1 (stereo not given)
dose: 400.0 mg/kg/injection, schedule: Q01DX011 (ip), vehicle: carboxymethylcellulose (CMC)
  survivor count: 0 of 10
dose: 800.0 mg/kg/injection, schedule: Q01DX011 (ip), vehicle: carboxymethylcellulose (CMC)
  survivor count: 0 of 10

## Nc1ncnc2c1nc(Br)n2C1OC(CO)C(O)C1O (stereo not given)
dose: 60.0 mg/kg/injection, schedule: Q01DX011 (ip), vehicle: carboxymethylcellulose (CMC)
  T/C: 127 % of control [9 of 10 alive]
dose: 240.0 mg/kg/injection, schedule: Q01DX011 (ip), vehicle: carboxymethylcellulose (CMC)
  T/C: 133 % of control
